Measured values: paper PMC10163288
The list shows a part of the results.

B1: il2ra_site2_3nfp_normal_mot_HHH_b2_00232_000000252_0001_23_39_H_._HHH_b2_01857_0001_0000200024_0000001_0_1_af2pred_0001_af2pred (protein)
chain: SSSSSDEEEEKVEELLEEAEHIEDEEELEDILALAFLIAFEAEDPELLRLVREVSAELLQSSSSS
B2: il2ra_site2_3nfp_normal_mot_HHH_b1_03316_000000041_0001_39_56_H_._HHH_b2_03878_0001_0000300032_0000001_0 (protein)
chain: SSSSDEEERLHEEVRELIEEGDPEEAQQALARAAELAFETNDHRLWMLIIELAELLLEFERSSSS
B3: il2ra_site1_2b5i_normal_mot_3116615af0ee64d731c1c85d8523bf51_0001_000000216_0001_15_32_H_._74ae6eb07f9420050133e9940f1af965_0001_0001_0000100004_0000001_0_1_af2 … (protein)
chain: DIEARIAAAAAELGVDPKRLKALVKAAQDALDVPPEKALDLVKEALEKAGGNVRKAMELLEALLK
B4: il2ra_site1_3nfp_normal_mot_HHH_b1_01417_af2_000000204_0001_1_19_H_._HHH_b1_00894_0001_0000100002_0000001_0 (protein)
chain: SSSSNAAERFTERAEELAKELGDEELVELLRELLEEAQKKGDSRVARELIKVIAKVQLKYESSSS
B5: il2ra_site1_3nfp_sap_16_mot_HHH_b1_01335_af2_000000105_0001_39_53_H_._HHH_eva_0536_0001_0000600013_0000001_0_0001 (protein)
chain: SSSSSSEWEEAQEAARELMRLWREGDKEKAREVAEELLELAERMNDKVAERLARQYLEVLSSSSS
B6: il2ra_site2_3nfp_sap_16_mot_HHH_b2_07129_000000128_0001_19_36_H_._HHH_b1_05592_af2_0001_0000300011_0000001_0_0001_af2pred_0001_1_af2pred_swapped (protein)
chain: DTITEVIRELREEGDPELALLLFAVLAEVEALDDPELEEELEKLIELAKRDPERAKELAKELLQR
B7: il2ra_site2_3nfp_sap_19_mot_HHH_b1_03745_000000053_0001_41_56_H_._HHH_b1_03974_0001_0000100003_0000001_0_0001 (protein)
chain: SSSSDIEERLKELIEQLEELEEKNDEDELAQLLLELMELAAKNNDEEAARAVLEVYARLRSSSSS
B8: il2ra_site1_1z92_normal_mot_01209686ea234b34325f918445e6eade_0001_af2_000000154_0001_18_33_H_._HHH_b1_06503_0001_0000300032_0000001_0_af2pred_0001_af2pred_1 (protein)
chain: SSSSDEEELREFVEELVRLLGLDEKAKRALERSLELALRQGISPESIKKALEKNAELDQKSSSSS
B9: il2ra_site2_2erj_normal_mot_HHH_b1_06554_af2_000000190_0001_44_57_H_._HHH_b2_05554_0001_0000100004_0000001_0_af2pred_0001_af2pred (protein)
chain: SSSSSSDLEERLEELLEEAKKIPDKEEALKLLQEALEIALELNDDELLELVTEAARESSSSSSSS
B10: il2ra_site2_2erj_normal_mot_af86707857d369f3e1d85dcabc5f9321_0001_000000201_0001_14_29_H_._HHH_b2_00608_0001_0000300022_0000001_0 (protein)
chain: SSSSDEEEVQELLREAKRLLENGDPERAAAVAISAAHLAAKLDDEELLREISKLFEEIYGSSSSS
B11: il2ra_site2_3nfp_sap_32_mot_HHH_b1_04787_000000220_0001_23_40_H_._HHH_b1_07367_0001_0000100002_0000001_0_0001 (protein)
chain: SSSSDKHERYLEAALELIKHAIQAGDEESAREHLETVKLAAEDNNDEEIQRLVEELEEELRSSSS
B12: il2ra_site1_1z92_sap_17_mot_HHH_b1_01613_000000190_0001_1_15_H_._HHH_b2_04434_0001_0000200013_0000001_1_0001 (protein)
chain: SEEERVEEIARELGIPPEVIELLLKDLEAAEKLGIPPEHALKAIARVAEQMGDPDILKLAEVLLK
B13: il2ra_site2_2erj_normal_mot_6ec3e94b46d95805cdcdc10c0c108f03_0001_af2_000000040_0001_36_50_H_._HHH_b1_06242_af2_0001_0000100002_0000001_0 (protein)
chain: SSSSDELRKLYELANRILHLLARGDPEEARELIEEAQELAEELQSDTAKEILEFLERLARSSSSS
B14: il2ra_site1_2b5i_normal_mot_HHH_b1_08157_af2_000000055_0001_42_55_H_._HHH_b1_04993_af2_0001_0000200013_0000001_0_af2pred_dldesign_0_af2pred (protein)
chain: SSSSSSDEVHDLALEAFRLKRAGKKEEAKKKLEEALKLAKEAKDEKLIAEVTYLLESLSSSSSSS
B15: il2ra_site1_3nfp_sap_17_mot_HHH_b1_07644_af2_000000110_0001_40_57_H_._HEEHE_2706_0001_0000400054_0000001_0_0001_af2pred_0001_af2pred_1_swapped (protein)
chain: SSSSDALEFVEELAEKAFENNDKFQLRALYKLLREALEKTGNPEAEEVLEKVEELLRELQSSSSS
B16: il2ra_site1_2b5i_sap_10_mot_037013d2e522ae4c653b5903b31fcd5c_0001_000000014_0001_34_49_H_._HHH_b1_07018_0001_0000300020_0000001_0_0001_af2pred_0001_af2pred (protein)
chain: SSSSSDYQEQILELIEEADKLDKNGNPEEARKVLEEALELAEEANNPSLARSIRLMLKLLSSSSS
B17: il2ra_site2_3nfp_normal_mot_ce0e691d864d74cc0dee145e42b7b696_0001_1_af2_000000051_0001_34_49_H_._HHH_b1_03816_af2_0001_0000100005_0000001_1 (protein)
chain: SSSDQELVEVLHQLFRALEEGDEELIEELRRELEELAKKVEDESLRQFAEQLLAAAALFLESSSS
B18: il2ra_site2_3nfp_sap_16_mot_HHH_b2_06150_000000217_0001_39_53_H_._2e137d6699d8fa890198131d25759a54_0001_0001_0000200025_0000001_1_0001 (protein)
chain: SSSSSKAEEYLEVALELLEELVELGDEELIRSALEVVEAMAESHNDEEAQELVEEVKKEFSSSSS
B19: il2ra_site1_3nfp_sap_19_mot_HHH_b2_01814_000000033_0001_1_16_H_._HHH_b2_06406_af2_0001_0000200017_0000001_1_0001 (protein)
chain: DKEEVAEAVEKLLEFAANLDSVEVSVHNGTLHVTVEGDDSQARAALKIAERAAKRFGIEVEVETE

Molecular target: il2ra, P01589
Experiment: yeast display titration

Apparent Kd, inactive:
B1 no binding seen
B2 no binding seen
B3 no binding seen
B4 no binding seen
B5 no binding seen
B6 no binding seen
B7 no binding seen
B8 no binding seen
B9 no binding seen
B10 no binding seen
B11 no binding seen
B12 no binding seen
B13 no binding seen
B14 no binding seen
B15 no binding seen
B16 no binding seen
B17 no binding seen
B18 no binding seen
B19 no binding seen

2 entries drawn at random from those above:
Apparent Kd, inactive:
B13 no binding seen
B10 no binding seen
